# No constants are given. Whether binding was seen depends on the method and setting. Binding seen in cells or lysates may run through a third protein. Some entries that bind do so weakly or less than the wild type.
# Target: cyclin-dependent kinase 1 (human (endogenous in U87 and U251)) (UniProt P06493)
# Experiment: co-IP; total protein lysates of U87 or U251 cells; CDK1 or p62 antibody on Protein A/G Plus-Agarose (4°C, 2 h), lysate added at 4°C overnight; detection by western blot
substance,measurement,value
p62 (from UniProt Q13501 1-440),binding,binds
